Laboratory results taken from article PMC3744483, “Swiprosin-1 Is a Novel Actin Bundling Protein That Regulates Cell Spreading and Migration” (PLoS ONE, 2013).
These are yes or no findings as the source states them, for the method shown. Binding seen in cells or lysates may run through a third protein. Some entries that bind do so weakly or less than the wild type. Where a sequence is shown, tags or fusion partners need not be part of it.

Tests used:
[1] = biological target: T1, wild-type swiprosin-1 fused to GFP (human) (UniProt Q96C19); assay: co-IP; HEK293T transfected with GFP or GFP_Swip-1 and myc or myc_Swip-1 (4, 7, 11 µg); lysates precipitated with anti-GFP antibody-conjugated beads, blotted with anti-GFP or anti-myc; also after BAPTA-AM (20 µM, with 2 mM EGTA) or ionomycin (2 µM, with 1 mM CaCl2) in the presence of 10 µM cytochalasin D
T1 sequence: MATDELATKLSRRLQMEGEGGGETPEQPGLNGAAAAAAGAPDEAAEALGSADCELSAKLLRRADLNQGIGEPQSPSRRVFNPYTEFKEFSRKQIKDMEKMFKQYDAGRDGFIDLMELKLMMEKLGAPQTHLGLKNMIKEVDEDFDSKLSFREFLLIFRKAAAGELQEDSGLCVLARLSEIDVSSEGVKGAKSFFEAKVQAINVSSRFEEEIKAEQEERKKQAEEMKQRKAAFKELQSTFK

[2] = biological target: M2_GFP_Swip-1 (Δ97–163) (human) (UniProt Q96C19); assay: cross-linking; lysates of transfected HEK293T cells with glutaraldehyde (0.001–0.01%) on ice for 20 min, SDS-PAGE, blot with anti-GFP
[3] = biological target: M3_GFP_Swip-1 (97–240) (human) (UniProt Q96C19); assay: as above
[4] = biological target: M1_GFP_Swip-1 (1–163) (human) (UniProt Q96C19); assay: as above

B1: His-tagged wild-type swiprosin-1 (natural protein, human, UniProt Q96C19 1-240, looked up)
chain: MATDELATKLSRRLQMEGEGGGETPEQPGLNGAAAAAAGAPDEAAEALGSADCELSAKLLRRADLNQGIGEPQSPSRRVFNPYTEFKEFSRKQIKDMEKMFKQYDAGRDGFIDLMELKLMMEKLGAPQTHLGLKNMIKEVDEDFDSKLSFREFLLIFRKAAAGELQEDSGLCVLARLSEIDVSSEGVKGAKSFFEAKVQAINVSSRFEEEIKAEQEERKKQAEEMKQRKAAFKELQSTFK
notes: swiprosin-1, human, full-length clone amplified from pOTB7 (RZPD), cloned into a modified pET-28a; The modified pET-28a carries a TEV protease cleavage site (ENLYFQ/G) with the N-terminal tandem His tags; no cleavage is described and the protein is detected with anti-His; also called Swip-1; source: E. coli BL21 (DE3), purified (Ni-NTA agarose); not shown: His tag (tandem), N-terminal, kept
Question: Which binding [1] does the source give for B1 here?
Answer: binds

B2: M2_GFP_Swip-1 (Δ97–163) (protein, UniProt Q96C19)
chain: MATDELATKLSRRLQMEGEGGGETPEQPGLNGAAAAAAGAPDEAAEALGSADCELSAKLLRRADLNQGIGEPQSPSRRVFNPYTEFKEFSRKQIKDELQEDSGLCVLARLSEIDVSSEGVKGAKSFFEAKVQAINVSSRFEEEIKAEQEERKKQAEEMKQRKAAFKELQSTFK
Question: B2 was tested. Which binding [2] did it give?
Answer: binds

B3: M3_GFP_Swip-1 (97–240) (domain or fragment, UniProt Q96C19 97-240)
chain: MEKMFKQYDAGRDGFIDLMELKLMMEKLGAPQTHLGLKNMIKEVDEDFDSKLSFREFLLIFRKAAAGELQEDSGLCVLARLSEIDVSSEGVKGAKSFFEAKVQAINVSSRFEEEIKAEQEERKKQAEEMKQRKAAFKELQSTFK
Question: B3 was tested. Which binding [3] did it give?
Answer: binds

B4: M1_GFP_Swip-1 (1–163) (domain or fragment, UniProt Q96C19 1-163)
chain: MATDELATKLSRRLQMEGEGGGETPEQPGLNGAAAAAAGAPDEAAEALGSADCELSAKLLRRADLNQGIGEPQSPSRRVFNPYTEFKEFSRKQIKDMEKMFKQYDAGRDGFIDLMELKLMMEKLGAPQTHLGLKNMIKEVDEDFDSKLSFREFLLIFRKAAAG
Question: How did the binding [4] turn out when B4 was run?
Answer: no binding
